Assay results from the supplement of paper PMC10727501.
Some of the results follow. Single values are uncertain here, since repeats match poorly.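 Researchers measured free-swimming zebrafish larvae's O-bend response probability to dark flashes (naive: first five; training: remaining flashes of four 60-flash blocks; test: later 60-flash block) and OMR turning toward alternating leftward/rightward LED motion. Six treated larvae were compared to sixty 0.1% DMSO controls, with |SSMD|≥2 marking a hit.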

Tested on: Danio rerio larvae (5 dpf, TLF)
Test: Prob-Train (SSMD vs DMSO vehicle); higher = higher than vehicle (e.g. higher dark-flash O-bend response probability, or better optomotor performance)
Conditions: 10 µM; pre-incubation: 30-90 min

Structure (SMILES) | Prob-Train
CN(c1ncccc1CNc1nc(Nc2ccc3c(c2)CC(=O)N3)ncc1C(F)(F)F)S(C)(=O)=O | -0.0193
C/C(O)=C(\C#N)C(=O)Nc1ccc(C(F)(F)F)cc1 [Teriflunomide] | 0.0371
N#CC(=Cc1ccc(-c2cc(Cl)ccc2Cl)o1)C(=O)Nc1cccc2ncccc12 | -0.214
Cc1nc(N)sc1-c1ccnc(Nc2ccc(N3CCOCC3)cc2)n1 | 0.237
Br.Br.NCCCCCNCC12CC3CC(CC(C3)C1)C2 [IEM 1754 dihydrobroMide] | 0.204
COC(=O)N[C@H](C(=O)N[C@@H](Cc1ccccc1)[C@@H](O)CN(Cc1ccc(-c2ccccn2)cc1)NC(=O)[C@@H](NC(=O)OC)C(C)(C)C)C(C)(C)C.O=S(=O)(O)O [Atazanavir Sulfate] | 0.077
C[C@]12C=CC(=O)C=C1CC[C@H]1[C@@H]3C[C@@H](O)[C@@](O)(C(=O)CO)[C@@]3(C)C[C@@H](O)[C@]12F [Triamcinolone] | 0.398
CCOc1nc2cccc(C(=O)OCc3oc(=O)oc3C)c2n1Cc1ccc(-c2ccccc2-c2nc(=O)o[nH]2)cc1 [Azilsartan Medoxomil] | -0.156
CC(C)n1c(/C=C/[C@@H](O)C[C@@H](O)CC(=O)[O-])c(-c2ccc(F)cc2)c2ccccc21.[Na+] [Fluvastatin Sodium] | -0.306
C[N+](C)(C)CCO.[Cl-] [Choline Chloride] | -0.272
C[C@@H]1COc2c(N3CCN(C)CC3)c(F)cc3c(=O)c(C(=O)O)cn1c23 [Levofloxacin] | 0.57

Random excerpt: 2 entries already listed.
Structure (SMILES) | Prob-Train
CN(c1ncccc1CNc1nc(Nc2ccc3c(c2)CC(=O)N3)ncc1C(F)(F)F)S(C)(=O)=O | -0.0193
COC(=O)N[C@H](C(=O)N[C@@H](Cc1ccccc1)[C@@H](O)CN(Cc1ccc(-c2ccccn2)cc1)NC(=O)[C@@H](NC(=O)OC)C(C)(C)C)C(C)(C)C.O=S(=O)(O)O [Atazanavir Sulfate] | 0.077
